Some of the results follow. Small differences around the control level are noise.

Chains of the proteins cited; added tags and fusions are not shown. Lines headed by an entry give the natural chain unless they say otherwise; changes in a name come on top.
UniProt O75530, whole entry, looked up: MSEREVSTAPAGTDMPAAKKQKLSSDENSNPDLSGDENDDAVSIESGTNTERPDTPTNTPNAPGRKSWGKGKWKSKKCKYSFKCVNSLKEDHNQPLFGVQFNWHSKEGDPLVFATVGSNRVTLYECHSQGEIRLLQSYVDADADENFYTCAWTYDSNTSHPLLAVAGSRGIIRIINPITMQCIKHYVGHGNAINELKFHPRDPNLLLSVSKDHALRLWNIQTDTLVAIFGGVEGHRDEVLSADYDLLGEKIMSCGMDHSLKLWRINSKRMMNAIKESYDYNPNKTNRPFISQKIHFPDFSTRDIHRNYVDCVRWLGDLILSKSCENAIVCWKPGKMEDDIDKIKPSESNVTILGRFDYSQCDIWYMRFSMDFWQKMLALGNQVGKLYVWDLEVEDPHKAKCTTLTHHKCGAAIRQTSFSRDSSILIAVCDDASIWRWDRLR
UniProt O75474: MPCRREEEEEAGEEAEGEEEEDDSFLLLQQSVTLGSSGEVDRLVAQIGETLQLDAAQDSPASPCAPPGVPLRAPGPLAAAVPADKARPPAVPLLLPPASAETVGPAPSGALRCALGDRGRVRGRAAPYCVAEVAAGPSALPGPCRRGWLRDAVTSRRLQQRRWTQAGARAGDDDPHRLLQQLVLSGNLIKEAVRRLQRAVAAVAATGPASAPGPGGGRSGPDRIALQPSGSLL
UniProt O95626: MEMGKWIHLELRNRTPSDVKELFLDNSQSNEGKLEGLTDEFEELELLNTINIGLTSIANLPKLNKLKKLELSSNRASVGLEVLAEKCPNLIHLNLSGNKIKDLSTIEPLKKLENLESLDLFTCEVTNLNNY
UniProt O95155, whole entry: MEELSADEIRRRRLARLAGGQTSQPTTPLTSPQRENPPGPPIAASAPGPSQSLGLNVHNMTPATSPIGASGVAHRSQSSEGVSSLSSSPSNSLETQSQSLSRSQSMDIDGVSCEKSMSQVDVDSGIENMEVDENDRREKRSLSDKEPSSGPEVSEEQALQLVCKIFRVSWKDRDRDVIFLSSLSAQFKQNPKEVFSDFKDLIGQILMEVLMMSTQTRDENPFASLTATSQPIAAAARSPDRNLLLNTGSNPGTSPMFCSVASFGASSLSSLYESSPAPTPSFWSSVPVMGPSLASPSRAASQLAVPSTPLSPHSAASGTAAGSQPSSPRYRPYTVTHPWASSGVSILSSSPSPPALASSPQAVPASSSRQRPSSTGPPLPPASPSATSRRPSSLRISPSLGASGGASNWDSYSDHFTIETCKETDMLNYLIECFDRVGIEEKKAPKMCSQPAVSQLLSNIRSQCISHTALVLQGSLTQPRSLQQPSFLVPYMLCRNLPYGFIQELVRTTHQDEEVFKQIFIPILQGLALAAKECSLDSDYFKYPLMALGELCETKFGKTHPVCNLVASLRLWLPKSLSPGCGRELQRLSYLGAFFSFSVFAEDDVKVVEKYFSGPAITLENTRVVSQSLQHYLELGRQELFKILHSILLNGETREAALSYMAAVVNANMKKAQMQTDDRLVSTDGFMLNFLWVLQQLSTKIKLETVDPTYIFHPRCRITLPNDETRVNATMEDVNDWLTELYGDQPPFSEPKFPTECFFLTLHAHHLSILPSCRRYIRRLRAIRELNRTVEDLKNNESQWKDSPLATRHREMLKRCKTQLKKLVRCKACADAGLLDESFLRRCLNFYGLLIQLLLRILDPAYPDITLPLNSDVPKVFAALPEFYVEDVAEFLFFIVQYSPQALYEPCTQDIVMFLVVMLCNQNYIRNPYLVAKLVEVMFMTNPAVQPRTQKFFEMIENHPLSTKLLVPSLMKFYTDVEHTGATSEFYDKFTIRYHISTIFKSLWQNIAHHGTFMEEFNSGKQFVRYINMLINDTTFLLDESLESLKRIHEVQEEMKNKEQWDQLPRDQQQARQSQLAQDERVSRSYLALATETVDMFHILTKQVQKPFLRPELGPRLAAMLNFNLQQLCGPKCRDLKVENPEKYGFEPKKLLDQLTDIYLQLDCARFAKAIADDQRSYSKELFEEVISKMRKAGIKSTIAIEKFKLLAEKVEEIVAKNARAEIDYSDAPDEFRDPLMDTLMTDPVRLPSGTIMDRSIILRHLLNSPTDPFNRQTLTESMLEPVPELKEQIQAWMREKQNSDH
UniProt O95625: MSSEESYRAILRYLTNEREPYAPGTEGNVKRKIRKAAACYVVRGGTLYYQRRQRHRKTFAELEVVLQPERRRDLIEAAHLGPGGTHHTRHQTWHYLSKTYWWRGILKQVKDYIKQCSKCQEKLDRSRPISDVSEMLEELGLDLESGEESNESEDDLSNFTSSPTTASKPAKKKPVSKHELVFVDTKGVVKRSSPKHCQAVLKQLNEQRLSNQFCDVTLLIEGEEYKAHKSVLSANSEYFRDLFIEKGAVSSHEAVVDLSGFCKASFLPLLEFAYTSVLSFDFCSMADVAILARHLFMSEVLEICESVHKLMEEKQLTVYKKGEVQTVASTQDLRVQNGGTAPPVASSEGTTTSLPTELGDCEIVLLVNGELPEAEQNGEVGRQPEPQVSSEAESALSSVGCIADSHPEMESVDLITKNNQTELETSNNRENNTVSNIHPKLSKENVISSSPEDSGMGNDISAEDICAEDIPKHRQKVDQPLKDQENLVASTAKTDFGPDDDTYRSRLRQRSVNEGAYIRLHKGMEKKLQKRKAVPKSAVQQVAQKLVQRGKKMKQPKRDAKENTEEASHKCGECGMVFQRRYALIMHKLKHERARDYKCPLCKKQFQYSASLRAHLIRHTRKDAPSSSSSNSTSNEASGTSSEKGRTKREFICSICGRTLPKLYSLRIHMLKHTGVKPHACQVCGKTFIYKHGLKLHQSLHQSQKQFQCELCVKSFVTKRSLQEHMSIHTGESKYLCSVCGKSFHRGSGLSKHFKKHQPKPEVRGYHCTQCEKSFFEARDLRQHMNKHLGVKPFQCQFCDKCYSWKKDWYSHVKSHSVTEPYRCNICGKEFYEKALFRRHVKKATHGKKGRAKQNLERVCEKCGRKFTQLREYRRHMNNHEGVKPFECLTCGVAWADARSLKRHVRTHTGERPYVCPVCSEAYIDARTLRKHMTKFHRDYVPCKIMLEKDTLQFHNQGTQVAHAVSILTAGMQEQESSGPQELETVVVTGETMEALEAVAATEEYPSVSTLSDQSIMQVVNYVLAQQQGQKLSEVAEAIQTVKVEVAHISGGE
UniProt O76094: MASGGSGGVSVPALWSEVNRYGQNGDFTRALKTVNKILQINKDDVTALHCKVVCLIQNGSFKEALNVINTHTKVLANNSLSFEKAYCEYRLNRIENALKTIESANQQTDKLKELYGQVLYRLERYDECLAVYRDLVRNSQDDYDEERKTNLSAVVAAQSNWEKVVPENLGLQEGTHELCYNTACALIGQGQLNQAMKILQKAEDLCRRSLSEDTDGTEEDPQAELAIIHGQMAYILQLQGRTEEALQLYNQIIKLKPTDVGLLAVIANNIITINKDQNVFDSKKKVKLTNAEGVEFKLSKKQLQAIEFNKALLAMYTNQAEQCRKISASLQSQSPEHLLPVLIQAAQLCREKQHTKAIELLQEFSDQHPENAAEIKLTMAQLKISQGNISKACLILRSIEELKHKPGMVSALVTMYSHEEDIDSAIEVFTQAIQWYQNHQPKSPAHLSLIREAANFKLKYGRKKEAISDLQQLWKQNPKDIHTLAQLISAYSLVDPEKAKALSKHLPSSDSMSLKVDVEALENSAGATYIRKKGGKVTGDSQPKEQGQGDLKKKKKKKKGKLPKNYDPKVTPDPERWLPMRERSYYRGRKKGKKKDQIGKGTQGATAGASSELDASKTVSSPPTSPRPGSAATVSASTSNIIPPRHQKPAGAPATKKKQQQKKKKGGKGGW
UniProt O75674: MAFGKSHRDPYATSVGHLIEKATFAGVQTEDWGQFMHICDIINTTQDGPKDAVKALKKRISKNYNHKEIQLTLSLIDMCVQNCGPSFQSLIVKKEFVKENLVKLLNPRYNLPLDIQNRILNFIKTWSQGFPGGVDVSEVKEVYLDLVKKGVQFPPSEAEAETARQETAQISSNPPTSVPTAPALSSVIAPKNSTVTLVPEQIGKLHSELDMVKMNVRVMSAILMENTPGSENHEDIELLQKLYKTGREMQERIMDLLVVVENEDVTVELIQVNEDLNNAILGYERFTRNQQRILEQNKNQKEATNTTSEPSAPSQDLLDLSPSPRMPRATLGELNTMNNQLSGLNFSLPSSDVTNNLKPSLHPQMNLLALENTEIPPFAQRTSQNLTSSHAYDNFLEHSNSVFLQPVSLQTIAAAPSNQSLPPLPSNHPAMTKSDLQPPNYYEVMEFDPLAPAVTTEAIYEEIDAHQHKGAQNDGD
UniProt O75386: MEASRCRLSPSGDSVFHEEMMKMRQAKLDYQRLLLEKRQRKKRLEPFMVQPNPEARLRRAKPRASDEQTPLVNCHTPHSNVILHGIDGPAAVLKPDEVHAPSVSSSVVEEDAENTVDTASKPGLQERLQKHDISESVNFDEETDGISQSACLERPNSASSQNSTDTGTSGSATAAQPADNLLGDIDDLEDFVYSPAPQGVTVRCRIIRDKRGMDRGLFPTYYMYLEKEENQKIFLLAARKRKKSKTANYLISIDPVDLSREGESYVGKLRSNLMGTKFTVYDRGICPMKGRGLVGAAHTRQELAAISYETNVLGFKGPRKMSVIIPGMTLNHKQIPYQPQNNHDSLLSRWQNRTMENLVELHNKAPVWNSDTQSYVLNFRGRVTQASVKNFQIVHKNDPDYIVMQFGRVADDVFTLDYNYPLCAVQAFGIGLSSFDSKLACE
UniProt O75865, whole entry: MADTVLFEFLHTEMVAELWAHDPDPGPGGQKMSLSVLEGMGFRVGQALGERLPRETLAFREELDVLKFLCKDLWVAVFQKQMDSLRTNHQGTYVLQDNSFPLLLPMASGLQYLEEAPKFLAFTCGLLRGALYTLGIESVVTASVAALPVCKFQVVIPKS
UniProt O94913, whole entry: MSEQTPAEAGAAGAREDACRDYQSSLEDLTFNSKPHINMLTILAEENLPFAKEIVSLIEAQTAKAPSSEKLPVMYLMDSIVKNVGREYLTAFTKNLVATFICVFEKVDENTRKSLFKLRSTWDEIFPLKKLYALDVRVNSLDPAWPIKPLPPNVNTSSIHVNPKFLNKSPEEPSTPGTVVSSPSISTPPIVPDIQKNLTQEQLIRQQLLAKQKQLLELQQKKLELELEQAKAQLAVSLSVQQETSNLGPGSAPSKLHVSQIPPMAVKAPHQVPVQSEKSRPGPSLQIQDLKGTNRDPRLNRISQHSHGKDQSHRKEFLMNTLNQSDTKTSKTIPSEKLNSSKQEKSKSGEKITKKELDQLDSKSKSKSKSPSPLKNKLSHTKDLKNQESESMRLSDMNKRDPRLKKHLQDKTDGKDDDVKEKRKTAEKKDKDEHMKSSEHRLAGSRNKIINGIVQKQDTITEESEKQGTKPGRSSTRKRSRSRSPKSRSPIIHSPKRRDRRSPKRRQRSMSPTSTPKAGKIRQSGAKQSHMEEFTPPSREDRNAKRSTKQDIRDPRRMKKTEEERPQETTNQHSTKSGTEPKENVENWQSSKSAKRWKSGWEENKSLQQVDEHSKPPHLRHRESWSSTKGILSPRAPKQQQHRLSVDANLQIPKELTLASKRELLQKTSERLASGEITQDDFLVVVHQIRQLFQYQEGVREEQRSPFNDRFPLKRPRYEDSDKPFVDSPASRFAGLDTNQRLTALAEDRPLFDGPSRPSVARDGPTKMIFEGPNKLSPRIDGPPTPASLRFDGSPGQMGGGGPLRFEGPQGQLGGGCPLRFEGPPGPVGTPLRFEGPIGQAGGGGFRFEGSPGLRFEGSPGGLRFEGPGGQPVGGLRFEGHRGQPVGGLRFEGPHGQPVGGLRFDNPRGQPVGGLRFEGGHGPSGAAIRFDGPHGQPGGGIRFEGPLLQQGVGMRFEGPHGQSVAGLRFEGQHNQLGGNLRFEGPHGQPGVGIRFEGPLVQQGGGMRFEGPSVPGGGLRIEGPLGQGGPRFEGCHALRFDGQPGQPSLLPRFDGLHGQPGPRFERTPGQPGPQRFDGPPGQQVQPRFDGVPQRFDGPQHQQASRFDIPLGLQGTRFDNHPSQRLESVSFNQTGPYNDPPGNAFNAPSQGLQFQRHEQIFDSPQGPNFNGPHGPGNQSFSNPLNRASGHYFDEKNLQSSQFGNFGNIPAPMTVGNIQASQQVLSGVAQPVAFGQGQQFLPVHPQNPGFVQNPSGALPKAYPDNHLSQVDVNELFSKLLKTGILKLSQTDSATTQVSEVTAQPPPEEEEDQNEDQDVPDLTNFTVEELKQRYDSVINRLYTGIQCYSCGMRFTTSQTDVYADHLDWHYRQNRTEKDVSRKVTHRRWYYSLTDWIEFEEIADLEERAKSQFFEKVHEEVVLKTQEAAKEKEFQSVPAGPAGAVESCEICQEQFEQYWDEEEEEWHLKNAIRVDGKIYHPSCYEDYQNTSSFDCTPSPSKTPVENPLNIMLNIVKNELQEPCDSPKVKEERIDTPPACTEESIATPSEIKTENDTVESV
UniProt O95295: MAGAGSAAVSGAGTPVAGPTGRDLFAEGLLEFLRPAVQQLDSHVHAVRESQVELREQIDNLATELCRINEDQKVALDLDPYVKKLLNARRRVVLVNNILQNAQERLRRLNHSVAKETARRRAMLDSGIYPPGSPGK

Compound in the assay: CN[C@@H]1C[C@H]2O[C@@](C)([C@@H]1OC)n1c3ccccc3c3c4c(c5c6ccccc6n2c5c31)C(=O)NC4 [staurosporine]
Briefly: log2 fold change of tryptic peptide abundance, ligand vs vehicle (limited proteolysis) (log2 ratio); higher = more trypsin-susceptible (destabilized). The conditions noted are these: ligand concentration: 20 uM; sample: K562 cleared lysate; digestion: 4 min, 22 C (HT-PELSA RT4min, Orbitrap Astral).
With “UniProt O75530 (peptide sequence: IHFPDFSTR, peptide start residue: 294)”, the log2 fold change is 0.559.
As to “GCAT (peptide sequence: MADDMLKR, peptide start residue: 362) (UniProt O75600)”, the log2 fold change came out at 0.663.
As for “UniProt O95503 (peptide sequence: ISDVHFSVKPSASASSPK, peptide start residue: 92)”, the figure is -0.644; as for “UniProt O75474 (peptide sequence: LLQQLVLSGNLIK, peptide start residue: 202)”, 0.0677; as for “ACSL3 (peptide sequence: THYQADIER, peptide start residue: 707) (UniProt O95573)”, 0.258.
As for “GLRX3 (peptide sequence: ASVMLFMK, peptide start residue: 246) (UniProt O76003)”, the figure is 0.0816; as for “UniProt O95626 (peptide sequence: DLSTIEPLK, peptide start residue: 102)”, -0.187; as for “UniProt O95567 (peptide sequence: NPLIASSFSLVK, peptide start residue: 67)”, 0.371.
Under “UBE4B (peptide sequence: HLLNSPTDPFNR, peptide start residue: 1261) (UniProt O95155)” stands 0.295; under “GIGYF1 (peptide sequence: SDSENWR, peptide start residue: 193) (UniProt O75420)”, 0.226.
For the target “GMNN (peptide sequence: ALYEALKENEK, peptide start residue: 109) (UniProt O75496)”, the log2 fold change is -0.416.
As for “CTAG2 (peptide sequence: GPHGGAASAQDGRCPCGAR, peptide start residue: 63) (UniProt O75638)”, the figure is -0.54; as for “PCNT (peptide sequence: DLESKDEVPGSR, peptide start residue: 2940) (UniProt O95613)”, -0.421; as for “ZBTB11 (peptide sequence: DLIEAAHLGPGGTHHTR, peptide start residue: 73) (UniProt O95625)”, 0.376.
As for “CAVIN2 (peptide sequence: GEDAAQAEK, peptide start residue: 2) (UniProt O95810)”, the figure is -0.468; as for “SRP72 (peptide sequence: VLANNSLSFEK, peptide start residue: 74) (UniProt O76094)”, 0.161; as for “BAG3 (peptide sequence: SSLGSHQLPR, peptide start residue: 194) (UniProt O95817)”, 0.259.
As for “BRI3 (peptide sequence: VYNIHSR, peptide start residue: 56) (UniProt O95415)”, the figure is -0.284.
In the case of “SF3B1 (peptide sequence: AIVNVIGMHK, peptide start residue: 999) (UniProt O75533)”, the log2 fold change came out at 0.191.
As for “AP2A1 (peptide sequence: YGGAPQALTLK, peptide start residue: 846) (UniProt O95782)”, the figure is 0.739.
As for “TOM1L1 (peptide sequence: ILEQNKNQK, peptide start residue: 293) (UniProt O75674)”, the figure is 0.363; as for “SAP30 (peptide sequence: AQLVEIVGCHFR, peptide start residue: 176) (UniProt O75446)”, -0.222; as for “UniProt O94826 (peptide sequence: WKEVAQDCTK, peptide start residue: 169)”, 0.3.
Under “LETM1 (peptide sequence: STLQTLPEIVAK, peptide start residue: 435) (UniProt O95202)” stands -0.311; under “TULP3 (peptide sequence: TANYLISIDPVDLSR, peptide start residue: 246) (UniProt O75386)”, 0.239.
“TRAPPC6A (peptide sequence: FLAFTCGLLR, peptide start residue: 119) (UniProt O75865)”: the log2 fold change was -0.128.
For “GOSR1 (peptide sequence: RTELFLK, peptide start residue: 159) (UniProt O95249)”, the log2 fold change worked out at 0.155.
Under “ACTL6A (peptide sequence: ENMEAISPLK, peptide start residue: 80) (UniProt O96019)” stands 0.387.
Under “PCF11 (peptide sequence: FTTSQTDVYADHLDWHYR, peptide start residue: 1350) (UniProt O94913)” stands -0.42.
For “NFAT5 (peptide sequence: IVVQPETQHR, peptide start residue: 284) (UniProt O94916)”, the log2 fold change came out at 0.463.
As for “UniProt O95995 (peptide sequence: EQVEEHVSR, peptide start residue: 29)”, the figure is 0.789.
As for “MRPL33 (peptide sequence: EKLTLLHYDPVVK, peptide start residue: 39) (UniProt O75394)”, the figure is -0.161; as for “UniProt O95759 (peptide sequence: DRDSLVEALLAR, peptide start residue: 379)”, 0.135; as for “TRIM16 (peptide sequence: SVLVSVSEVK, peptide start residue: 203) (UniProt O95361)”, 0.376.
In the case of “SYF2 (peptide sequence: RRPYNDDADIDYINER, peptide start residue: 199) (UniProt O95926)”, the log2 fold change worked out at 0.265.
Take “SNAPIN (peptide sequence: RLNHSVAK, peptide start residue: 108) (UniProt O95295)”: the log2 fold change was determined as 0.553.

Values taken from the supplement of paper PMC12819154, “High-throughput peptide-centric local stability assay extends protein–ligand identification to membrane proteins, tissues and bacteria” (Nature Structural & Molecular Biology, 2025).
